Results are given in words; binding and its absence hold for the method and conditions named. Binding calls can cover weak binding; strength is not graded here. Tags and fused reporters may be left off the sequences shown.

The test addresses T1, Fc-NRP2 (UniProt O60462).
T1 sequence: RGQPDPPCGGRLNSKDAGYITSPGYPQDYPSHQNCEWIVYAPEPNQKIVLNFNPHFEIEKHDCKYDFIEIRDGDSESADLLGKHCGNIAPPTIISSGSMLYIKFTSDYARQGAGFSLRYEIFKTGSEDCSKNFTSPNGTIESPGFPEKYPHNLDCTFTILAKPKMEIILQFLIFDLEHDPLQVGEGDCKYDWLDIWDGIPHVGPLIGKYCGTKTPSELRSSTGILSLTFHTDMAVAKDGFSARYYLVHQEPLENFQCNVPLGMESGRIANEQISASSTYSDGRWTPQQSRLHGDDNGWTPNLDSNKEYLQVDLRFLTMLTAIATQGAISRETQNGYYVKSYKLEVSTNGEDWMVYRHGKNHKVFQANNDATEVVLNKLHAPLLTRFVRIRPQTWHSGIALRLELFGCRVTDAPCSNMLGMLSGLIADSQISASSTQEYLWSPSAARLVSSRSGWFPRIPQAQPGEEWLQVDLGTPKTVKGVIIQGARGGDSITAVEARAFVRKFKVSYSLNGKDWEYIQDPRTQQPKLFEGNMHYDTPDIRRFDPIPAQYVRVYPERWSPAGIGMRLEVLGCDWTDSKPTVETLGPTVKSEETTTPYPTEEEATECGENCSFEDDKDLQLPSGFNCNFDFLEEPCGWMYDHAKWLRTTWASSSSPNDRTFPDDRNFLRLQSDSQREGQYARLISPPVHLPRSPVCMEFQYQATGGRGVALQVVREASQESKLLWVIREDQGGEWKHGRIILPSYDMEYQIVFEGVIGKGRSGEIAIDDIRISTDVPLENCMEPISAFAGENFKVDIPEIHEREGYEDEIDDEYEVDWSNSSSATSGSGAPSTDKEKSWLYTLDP
Description: SPR; Fc-NRP2 covalently grafted on a chemically activated self assembled monolayer of a homemade chip (7.4 +/- 0.1 femtomole/mm^2 of NRP2); analytes injected at 250 nM in PBS-Tween 0.05%, pH 7.4; Biacore 2000, 25°C, flow rate between 2 and 30 µl/min; both purified. (In general: In SPR one partner is held on a chip, and binding of the other changes the refractive index at the surface.)

In the case of VEGF165 (ligand), the binding entry is reported as “binds”.

(Values after publication PMC3128581.)
